This is an account of results in the supplement of paper PMC5949888.

Most values lie at the floor of the assay. Slopes are relative: functional sequences can read slightly below zero.

The subject of this data set is Saccharomyces cerevisiae PS128 hsf1 delta, HSF1(1-493) fusion. The data set is described as follows: growth estimate (transactivation domain function in HSF1 fusion, heat-shock survival) (a.u. (slope of normalised read count over time)); higher = stronger growth at 37°C, i.e. more transactivation activity. The conditions noted are these: library: random library.
Take SRTEGQMKWEEASFR: the growth estimate is -0.16.

Turning to GFANDVRPYRGLCVYLLLHP, the growth estimate was under -0.25.

EMVRLTLVQPDRRLSLRFRL: the growth estimate is under -0.25.

For LEIFVKFGCGAYEAGLDVGS, the growth estimate is under -0.25.

With SAAMELGARKGPTCELSSMA, the growth estimate is under -0.25.

With SAVPSRVYYRFRHGDPMWIV, the growth estimate is under -0.25.

For WDQIGVTRCGTQLFYSRRLP, the growth estimate is under -0.25.

On to SSLGLGPDNCRVTLAKGYIK, for which the growth estimate was under -0.25.

TRSIGLTRLRDCWVQHALRA: the growth estimate is under -0.25.

For the substance CANGRQR, the growth estimate is under -0.25.

For SAHRGHGLKSWNVTPLGTSE, the growth estimate is under -0.25.

Regarding SPPRLGAKGFKNIIVGQPHR, the growth estimate is under -0.25.

Take GVCRRYPRRMVVLYVPTHHP: the growth estimate is under -0.25.

As for RVLLLPRQLNVGYSVC, the growth estimate was under -0.25.

For the substance IIPEHLVTCRGGLLVHPTPL, the growth estimate was under -0.25.

Regarding LGPGAARTERGVFKMAIGV, the growth estimate was under -0.25.

QMNWESEPIIL: the growth estimate was under -0.25.

In the case of LMVLSWGARGIRGW, the growth estimate is under -0.25.

On to PQLYV, for which the growth estimate is under -0.25.

Turning to SWMSGIGF, the growth estimate was under -0.25.

Take YPVLGPHLPTGYSTMQTTSC: the growth estimate is under -0.25.

Turning to PLMSLPQDCSWCGAGTEA, the growth estimate is under -0.25.

As to MAHTIDNVKNSIRL, the growth estimate was under -0.25.

As to CIRVPILMSNDTARKWCIVR, the growth estimate is under -0.25.

Take RAHRVSGNLIVNMSQNRTRS: the growth estimate is under -0.25.

Regarding DRSWWAI, the growth estimate is 0.246.

Turning to IWRHTIRPGVVNALEFLSAS, the growth estimate is under -0.25.

On to TFSRKSVGTA, for which the growth estimate is under -0.25.

As for IASDSDRTSH, the growth estimate was under -0.25.

As for GQRIDQRVLAPKAFDAGHSL, the growth estimate was under -0.25.

For the substance LSSVIPSACGTAGGREIERR, the growth estimate is under -0.25.

On to RGCGTCPT, for which the growth estimate is under -0.25.

On to ELVQVNQSRLRRGPTRWAPP, for which the growth estimate was under -0.25.

With PEIAPWLGLYSDYHTYCLGC, the growth estimate is under -0.25.

Consider SISLAAFRISVITV, for which the growth estimate was under -0.25.

With ARVLRR, the growth estimate was under -0.25.

Turning to LRQQPAVNPRETNLCSIYTS, the growth estimate is under -0.25.

Take TVGWHHR: the growth estimate was under -0.25.

ERVGIMPRETASTRRSRIVC: the growth estimate was under -0.25.

For the substance GTGRQFIRCLMSVE, the growth estimate is under -0.25.

With IVR, the growth estimate is under -0.25.

Turning to SVDARFLSKGVSGASHLW, the growth estimate was under -0.25.

Take WCISRQRYNIEGTGVALTKD: the growth estimate was under -0.25.

With DVC, the growth estimate was under -0.25.

In the case of KPDANELKMARKK, the growth estimate was under -0.25.

Consider YKVNESCNSELARGDHWLTD, for which the growth estimate is under -0.25.

In the case of KKGRECVRR, the growth estimate is -0.243.

Turning to GSNKEELGTLMAVNFPPKGT, the growth estimate is under -0.25.

RESVAPLVHRAYIDESGKVV: the growth estimate is under -0.25.

As to MINTFVWGSIEGGGVVSKFG, the growth estimate is under -0.25.

For the substance YIIG, the growth estimate was under -0.25.

For LGSTKADGSYTEVCVTSRWS, the growth estimate was under -0.25.

For the substance NPRALAINCPDRLENIEMRR, the growth estimate was under -0.25.

As for ETVIARGNGNTTVSRHTCGN, the growth estimate is -0.248.

Turning to NAQGGVLFGRRAYHFESRRI, the growth estimate is under -0.25.

Turning to CITSGECSIRDVSQWETLEL, the growth estimate is under -0.25.

For the substance ISARANV, the growth estimate was under -0.25.

Regarding SSNHQ, the growth estimate is under -0.25.

Turning to SFRS, the growth estimate was under -0.25.

In the case of LKVASLV, the growth estimate was under -0.25.

For GLFLGDRGHTKPRKSGAAQS, the growth estimate was under -0.25.

As to QVVAGLRYNSNSAYQFVGLG, the growth estimate was under -0.25.

With EECKEDIIRPFQLYTGATYW, the growth estimate was under -0.25.

Consider GSYG, for which the growth estimate is under -0.25.

Turning to WVVDLKADIPSSNVPSSVGP, the growth estimate is under -0.25.

On to AMHCRTAV, for which the growth estimate is under -0.25.

Regarding KIFPYPSHVSDLICFGSVSP, the growth estimate was -0.242.

For the substance SHPRSYPLLLHEDPAQLYIG, the growth estimate is under -0.25.

On to GRALFNKRHKGVSGSVIEQT, for which the growth estimate was under -0.25.

Turning to VEGTLESQAISSKRHDMPAA, the growth estimate was under -0.25.

Turning to GTTPGGFIEGIPWDDPS, the growth estimate is under -0.25.

GSRIHDIAWPSGFVASHHQK: the growth estimate was under -0.25.

With SHEVAGTRLFQGYDEWSLIG, the growth estimate was 0.527.

As for TSYHRGFGLNIVCSAHVKAS, the growth estimate was under -0.25.

With TQTIDLGAL, the growth estimate was under -0.25.

In the case of LMDH, the growth estimate is under -0.25.

For SSAEL, the growth estimate is under -0.25.

Turning to PVTSQ, the growth estimate is under -0.25.

NRYPLLVWHIYWIPGLCFGS: the growth estimate was under -0.25.

As to ALWVSGLNAHGVCLPAWITG, the growth estimate is under -0.25.

For the substance FLVEIPLWFQRAVCWHSELF, the growth estimate is under -0.25.

Consider SMPWIGE, for which the growth estimate was under -0.25.

For the substance HIGVRWVPM, the growth estimate was under -0.25.

As for TATVERWTRWHRMLGFNCFA, the growth estimate was under -0.25.

With LYPGL, the growth estimate was under -0.25.

On to RKPEGSITDRLRY, for which the growth estimate was under -0.25.

On to CRSACWKGESFEDRKRLPMA, for which the growth estimate is under -0.25.

In the case of IANRLRETVLP, the growth estimate is under -0.25.

Regarding DAQG, the growth estimate is under -0.25.

As for RSYQPSVNGRGQCQANCRVT, the growth estimate was under -0.25.

In the case of LQVIP, the growth estimate is -0.243.

IESDCMGAMEH: the growth estimate was under -0.25.

Turning to PALGGLLTLVERRMPYPERI, the growth estimate was -0.246.

For LPPPVFPVTFT, the growth estimate is under -0.25.

With LSIESTVVSRLPGSKR, the growth estimate was under -0.25.

For IAQLMDLWTFYMPSSDPCRR, the growth estimate is -0.183.

With ELNKRSPVIPLS, the growth estimate is under -0.25.

Take RSTAM: the growth estimate was under -0.25.

As to IGAWSVIQELFPHLVVGDPN, the growth estimate is under -0.25.

SKSRCVIIGPTSLLMQTRAL: the growth estimate was under -0.25.

As for VQMRQKQGTAQFGFEPTNTR, the growth estimate is under -0.25.

Turning to SHKRAEEV, the growth estimate was under -0.25.

In the case of REALKFSAHKQWHRGCECFG, the growth estimate was under -0.25.

Take FPRLF: the growth estimate is under -0.25.

For the substance QLATSRFRSV, the growth estimate was under -0.25.

Turning to VQAYRRPIAGRTPHENRCS, the growth estimate was under -0.25.

Consider EHSGPSERCTA, for which the growth estimate is -0.243.

Consider HVVQVMNPPMVSSMRALRLG, for which the growth estimate is under -0.25.

With GQND, the growth estimate is under -0.25.

As to GKEHLKHTGDFELRSSDRRH, the growth estimate was under -0.25.

As to VPESVLAV, the growth estimate is under -0.25.

On to CRLLPLGS, for which the growth estimate was under -0.25.

Turning to KGSLRVIGIGWLRAGRMDVR, the growth estimate is under -0.25.

RFRCRKGHRQAFTVPRLASD: the growth estimate is under -0.25.
